Test results taken from publication PMC4330346, “Function of the N-terminal segment of the RecA-dependent nuclease Ref” (Nucleic Acids Research, 2015).

Tests used:
[1] = target: T1, phiW39 deltaN59 Ref R86T,A93T,N107E,A115S (bacteriophage phiW39) (UniProt P35926); assay: fluorescence polarization; details: 25 mM Tris-acetate pH 8.5, 3 mM potassium glutamate, 15 mM magnesium acetate, 5% w/v glycerol, 2 nM DNA, Ref 0.5-10000 nM, 15 min at room temperature, read at 25 C; recombinant protein; label: 5' 6-FAM on strand 1
T1 sequence (looked up, limits assumed): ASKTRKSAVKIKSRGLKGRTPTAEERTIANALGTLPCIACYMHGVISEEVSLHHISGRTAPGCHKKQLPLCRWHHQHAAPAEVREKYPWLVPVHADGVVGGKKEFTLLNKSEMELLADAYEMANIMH

[2] = target: T2, phiW39 deltaN66 Ref R86T,A93T,N107E,A115S (bacteriophage phiW39) (UniProt P35926); assay: fluorescence polarization; details: 25 mM Tris-acetate pH 8.5, 3 mM potassium glutamate, 15 mM magnesium acetate, 5% w/v glycerol, 2 nM DNA, Ref 0.5-10000 nM, 15 min at room temperature, read at 25 C, recombinant protein
T2 sequence (looked up, limits assumed): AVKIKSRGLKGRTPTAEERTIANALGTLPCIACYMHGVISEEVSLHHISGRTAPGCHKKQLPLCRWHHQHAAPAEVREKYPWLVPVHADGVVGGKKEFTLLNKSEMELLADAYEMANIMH

Sequence | binding result [1] | binding result ([2]; label: 5' 6-FAM on strand 1) | binding result ([2]; saturation not attainable, label: 5' 6-FAM, single-stranded DNA)
CAGAAGTAAGTTGGCCGCAGTGTTATCACTCATGGTTATGGCAGCACTGCATAATTCTCTTACTGTCATGC (double strand) [AJM25/AJG52 71 bp dsDNA] | binds more weakly | binds more weakly | 
CAGAAGTAAGTTGGCCGCAGTGTTATCACTCATGGTTATGGCAGCACTGCATAATTCTCTTACTGTCATGC [AJM25 71mer ssDNA] |  |  | binds more weakly

Weaker means in comparison with the reference protein, sequence or condition of that experiment. Protein sequences can lack the tags named with them.
